Measurements reported in PubChem BioAssay AID298 (DTP/NCI, 2004).
The list does not hold the whole screen: it covers a few groups of compounds. Other doses and runs of a compound may be missing. T/C is the treated group as % of the vehicle group. Schedule codes are those of the source, taken here to give the interval after Q, in days (D) or hours (H), and the number of doses after X. Some entries show no survivor count and are marked so; the dose need not have been tolerated. Some doses were run more than once; their values stand side by side, smallest first.

Tested on: MX-1 breast xenograft, intrarenal, nude mice, tumor weight
Assay: NCI In Vivo Anticancer Drug Screen. Data for tumor model Human Mammary Carcinoma MX-1 Xenograft (intrarenal inoculation) in NU/NU BALB/C (nude) mice
Conditions: T/C endpoint: mean tumor weight change, evaluated on day 11, higher T/C = larger tumour
Procedure: The antitumor activity of compounds was measured in mice bearing transplantable tumors. Survival or tumor size were measured and the results are expressed as the measurement made in the treated group (T) divided by the measurement made in the vehicle treated control group (C). The tumor model used in this assay is Human Mammary Carcinoma MX-1 Xenograft (intrarenal inoculation) in NU/NU BALB/C (nude) mice

**Q.** Which T/C (dose: 12.5 mg/kg/injection, schedule: Q04DX003 (ip), vehicle: saline + alcohol) does the source give for `CC(O)C1/C=C/C=C/C(=O)OC2CC3OC4C5OC5(C)C(O)CC4(COC(=O)C(O)C(C)CCO1)C2(C)C31CO1` (stereo not given) here?
**A.** The T/C was 90 % of control [survivor count not shown].

**Q.** And the T/C (dose: 25.0 mg/kg/injection, schedule: Q04DX003 (ip), vehicle: saline + alcohol)?
**A.** The T/C was 97 % of control [survivor count not shown].

**Q.** And the T/C (dose: 50.0 mg/kg/injection, schedule: Q04DX003 (ip), vehicle: saline + alcohol)?
**A.** Its T/C is 99 % of control [survivor count not shown].

**Q.** What does the source list for `CC(=O)OC[C@]12C[C@H](OC(=O)CC(C)C)C(C)=C[C@H]1O[C@@H]1[C@H](O)[C@@H](O)[C@@]2(C)[C@@]12CO2`?
**A.** T/C (dose: 1.0 mg/kg/injection, schedule: Q04DX003 (sc), vehicle: saline): 92 % of control [survivor count not shown]; T/C (dose: 2.0 mg/kg/injection, schedule: Q04DX003 (sc), vehicle: saline): 73 % of control [survivor count not shown]; T/C (dose: 4.0 mg/kg/injection, schedule: Q04DX003 (sc), vehicle: saline): 72 % of control [survivor count not shown]

**Q.** Which results are given for `CC1=C[C@H]2O[C@@H]3C[C@H]4OC(=O)/C=C\C=C\[C@H]([C@@H](C)O)OC[C@H](O)[C@@]5(C)O[C@@H]5C(=O)OC[C@@]2(C[C@H]1O)[C@]4(C)C31CO1` (stereo not given in full)?
**A.** T/C (dose: 0.62 mg/kg/injection, schedule: Q04DX003 (ip), vehicle: Klucel (hydroxypropylcellulose) (HPC)): 75 [survivor count not shown] and 92 % of control [survivor count not shown]; T/C (dose: 1.25 mg/kg/injection, schedule: Q04DX003 (ip), vehicle: Klucel (hydroxypropylcellulose) (HPC)): 61 [survivor count not shown] and 73 % of control [survivor count not shown]; T/C (dose: 2.5 mg/kg/injection, schedule: Q04DX003 (ip), vehicle: Klucel (hydroxypropylcellulose) (HPC)): 36 [survivor count not shown], 39 [survivor count not shown], 53 % of control [survivor count not shown]; T/C (dose: 5.0 mg/kg/injection, schedule: Q04DX003 (ip), vehicle: Klucel (hydroxypropylcellulose) (HPC)): 36 % of control [survivor count not shown]
